# Measurements published in the supplement of paper PMC10849652.
# Sequences of proteins named here, by UniProt entry; tags and fusion partners are left off. A change or cut given only in a name is not applied to a line headed by its entry.
# UniProt Q86YT6, whole entry, looked up: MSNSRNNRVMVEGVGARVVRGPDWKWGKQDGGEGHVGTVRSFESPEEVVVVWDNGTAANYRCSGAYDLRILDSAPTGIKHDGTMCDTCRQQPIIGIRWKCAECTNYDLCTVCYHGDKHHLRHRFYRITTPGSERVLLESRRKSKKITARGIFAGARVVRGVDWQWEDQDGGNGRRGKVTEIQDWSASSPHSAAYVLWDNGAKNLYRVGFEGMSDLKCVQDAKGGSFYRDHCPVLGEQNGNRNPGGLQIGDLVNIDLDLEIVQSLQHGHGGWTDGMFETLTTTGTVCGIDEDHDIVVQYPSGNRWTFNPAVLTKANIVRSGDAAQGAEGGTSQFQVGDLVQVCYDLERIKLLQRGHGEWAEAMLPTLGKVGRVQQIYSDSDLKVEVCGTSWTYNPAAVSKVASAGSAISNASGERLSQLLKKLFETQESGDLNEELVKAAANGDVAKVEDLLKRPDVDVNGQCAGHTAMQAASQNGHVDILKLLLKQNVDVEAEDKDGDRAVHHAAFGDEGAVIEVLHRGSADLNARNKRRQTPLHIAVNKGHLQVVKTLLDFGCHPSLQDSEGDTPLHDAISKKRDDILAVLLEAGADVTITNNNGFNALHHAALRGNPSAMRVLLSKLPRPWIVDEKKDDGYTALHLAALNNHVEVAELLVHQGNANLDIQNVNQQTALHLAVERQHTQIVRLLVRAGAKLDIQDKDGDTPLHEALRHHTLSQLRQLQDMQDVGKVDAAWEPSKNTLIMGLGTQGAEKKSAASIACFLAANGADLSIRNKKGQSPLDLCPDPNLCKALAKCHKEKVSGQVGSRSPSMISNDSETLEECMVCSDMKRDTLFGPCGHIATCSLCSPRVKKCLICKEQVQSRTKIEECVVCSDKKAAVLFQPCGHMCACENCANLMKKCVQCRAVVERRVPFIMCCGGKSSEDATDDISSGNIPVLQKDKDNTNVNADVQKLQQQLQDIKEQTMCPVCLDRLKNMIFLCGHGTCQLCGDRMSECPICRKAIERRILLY
# UniProt Q9NZW5: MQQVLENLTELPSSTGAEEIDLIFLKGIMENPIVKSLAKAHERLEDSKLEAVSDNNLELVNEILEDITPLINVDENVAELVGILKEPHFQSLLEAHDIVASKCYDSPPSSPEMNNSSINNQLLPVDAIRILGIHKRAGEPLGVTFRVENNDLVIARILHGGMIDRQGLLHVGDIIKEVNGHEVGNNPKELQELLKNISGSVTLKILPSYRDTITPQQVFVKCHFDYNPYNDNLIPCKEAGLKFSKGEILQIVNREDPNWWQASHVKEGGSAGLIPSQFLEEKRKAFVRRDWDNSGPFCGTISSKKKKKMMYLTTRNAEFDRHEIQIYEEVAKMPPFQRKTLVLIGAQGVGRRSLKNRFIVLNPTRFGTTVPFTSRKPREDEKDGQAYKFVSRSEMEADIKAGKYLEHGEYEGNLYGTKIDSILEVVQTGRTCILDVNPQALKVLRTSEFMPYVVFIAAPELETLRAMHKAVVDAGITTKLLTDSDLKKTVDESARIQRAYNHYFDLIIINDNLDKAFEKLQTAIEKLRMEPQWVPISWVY
# UniProt O95563: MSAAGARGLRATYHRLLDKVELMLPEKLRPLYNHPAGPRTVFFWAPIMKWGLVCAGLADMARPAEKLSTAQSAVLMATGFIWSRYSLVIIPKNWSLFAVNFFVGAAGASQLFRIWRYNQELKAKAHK
# UniProt Q9HC36: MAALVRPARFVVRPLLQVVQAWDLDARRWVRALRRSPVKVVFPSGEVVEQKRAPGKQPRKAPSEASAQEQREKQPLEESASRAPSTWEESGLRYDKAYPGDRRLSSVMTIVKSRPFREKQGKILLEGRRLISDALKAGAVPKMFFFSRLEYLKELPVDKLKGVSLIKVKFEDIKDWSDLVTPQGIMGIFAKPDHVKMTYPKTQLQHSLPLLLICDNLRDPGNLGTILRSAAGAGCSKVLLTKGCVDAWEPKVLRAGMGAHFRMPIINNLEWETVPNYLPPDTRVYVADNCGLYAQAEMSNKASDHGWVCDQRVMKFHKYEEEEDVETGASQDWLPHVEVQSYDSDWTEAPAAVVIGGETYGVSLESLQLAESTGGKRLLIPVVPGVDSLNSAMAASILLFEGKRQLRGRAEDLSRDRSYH
# UniProt Q8N4C8: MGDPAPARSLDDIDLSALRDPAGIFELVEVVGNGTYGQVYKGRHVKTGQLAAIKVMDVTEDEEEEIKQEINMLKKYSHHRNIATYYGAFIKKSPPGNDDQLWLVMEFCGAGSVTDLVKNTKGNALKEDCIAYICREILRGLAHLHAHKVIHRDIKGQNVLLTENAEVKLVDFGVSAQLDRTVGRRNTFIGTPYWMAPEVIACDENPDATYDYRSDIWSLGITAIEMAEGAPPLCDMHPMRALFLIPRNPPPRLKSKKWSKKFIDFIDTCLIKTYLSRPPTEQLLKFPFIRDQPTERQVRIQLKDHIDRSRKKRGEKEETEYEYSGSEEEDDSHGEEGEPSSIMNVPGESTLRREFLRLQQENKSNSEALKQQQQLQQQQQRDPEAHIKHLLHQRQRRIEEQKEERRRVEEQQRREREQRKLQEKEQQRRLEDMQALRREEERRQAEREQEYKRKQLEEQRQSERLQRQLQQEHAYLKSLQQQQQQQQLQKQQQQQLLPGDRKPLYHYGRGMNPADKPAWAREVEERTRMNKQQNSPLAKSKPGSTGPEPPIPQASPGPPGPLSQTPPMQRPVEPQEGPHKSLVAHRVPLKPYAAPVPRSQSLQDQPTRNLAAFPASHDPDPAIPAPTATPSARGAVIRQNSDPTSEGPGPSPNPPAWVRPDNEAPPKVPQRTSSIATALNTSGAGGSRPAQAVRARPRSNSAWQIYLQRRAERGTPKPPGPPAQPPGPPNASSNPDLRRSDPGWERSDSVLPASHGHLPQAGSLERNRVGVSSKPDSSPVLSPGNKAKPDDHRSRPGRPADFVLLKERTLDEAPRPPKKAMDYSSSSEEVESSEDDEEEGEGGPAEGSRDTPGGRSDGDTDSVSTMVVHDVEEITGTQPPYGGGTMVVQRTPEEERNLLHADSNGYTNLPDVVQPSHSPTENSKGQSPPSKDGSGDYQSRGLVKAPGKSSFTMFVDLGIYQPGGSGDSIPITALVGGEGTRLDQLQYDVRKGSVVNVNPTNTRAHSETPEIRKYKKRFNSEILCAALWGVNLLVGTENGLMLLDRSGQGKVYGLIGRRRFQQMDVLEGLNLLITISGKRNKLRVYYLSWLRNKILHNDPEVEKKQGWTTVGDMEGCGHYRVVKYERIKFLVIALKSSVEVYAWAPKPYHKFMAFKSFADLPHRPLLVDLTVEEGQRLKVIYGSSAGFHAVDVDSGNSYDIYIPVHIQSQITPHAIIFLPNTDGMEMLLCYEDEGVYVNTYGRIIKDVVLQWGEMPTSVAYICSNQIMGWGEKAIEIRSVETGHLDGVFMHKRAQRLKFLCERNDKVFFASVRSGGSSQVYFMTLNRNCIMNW
# UniProt Q8N3F8: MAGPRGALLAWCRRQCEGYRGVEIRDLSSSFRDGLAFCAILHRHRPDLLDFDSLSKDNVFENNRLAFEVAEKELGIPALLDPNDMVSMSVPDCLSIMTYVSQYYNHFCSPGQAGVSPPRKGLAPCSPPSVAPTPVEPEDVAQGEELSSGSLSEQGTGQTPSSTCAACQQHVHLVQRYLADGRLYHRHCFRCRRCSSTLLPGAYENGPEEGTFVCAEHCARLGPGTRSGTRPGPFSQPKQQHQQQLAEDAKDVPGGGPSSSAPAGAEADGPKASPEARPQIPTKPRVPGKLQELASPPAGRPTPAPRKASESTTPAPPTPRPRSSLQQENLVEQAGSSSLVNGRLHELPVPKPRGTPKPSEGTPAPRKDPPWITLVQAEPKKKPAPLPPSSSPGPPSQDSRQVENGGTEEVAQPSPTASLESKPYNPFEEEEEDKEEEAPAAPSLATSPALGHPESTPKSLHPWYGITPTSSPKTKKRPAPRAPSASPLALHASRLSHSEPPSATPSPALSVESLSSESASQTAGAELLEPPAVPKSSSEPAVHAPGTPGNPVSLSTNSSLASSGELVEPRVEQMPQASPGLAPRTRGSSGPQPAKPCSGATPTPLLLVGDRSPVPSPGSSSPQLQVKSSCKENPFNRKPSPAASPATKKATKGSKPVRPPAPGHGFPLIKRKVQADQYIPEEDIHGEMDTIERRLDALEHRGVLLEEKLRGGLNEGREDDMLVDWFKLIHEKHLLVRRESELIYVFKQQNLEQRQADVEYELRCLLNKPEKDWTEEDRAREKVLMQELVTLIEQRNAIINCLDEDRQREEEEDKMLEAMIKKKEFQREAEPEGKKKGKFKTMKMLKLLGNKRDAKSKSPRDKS
# UniProt Q9UI43: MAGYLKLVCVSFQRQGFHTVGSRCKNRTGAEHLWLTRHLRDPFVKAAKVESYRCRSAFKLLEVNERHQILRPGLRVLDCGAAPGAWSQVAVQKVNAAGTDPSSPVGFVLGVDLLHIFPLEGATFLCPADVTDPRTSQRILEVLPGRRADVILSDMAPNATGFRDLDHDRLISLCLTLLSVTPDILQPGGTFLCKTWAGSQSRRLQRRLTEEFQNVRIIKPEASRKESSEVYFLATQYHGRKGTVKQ
# UniProt Q99549: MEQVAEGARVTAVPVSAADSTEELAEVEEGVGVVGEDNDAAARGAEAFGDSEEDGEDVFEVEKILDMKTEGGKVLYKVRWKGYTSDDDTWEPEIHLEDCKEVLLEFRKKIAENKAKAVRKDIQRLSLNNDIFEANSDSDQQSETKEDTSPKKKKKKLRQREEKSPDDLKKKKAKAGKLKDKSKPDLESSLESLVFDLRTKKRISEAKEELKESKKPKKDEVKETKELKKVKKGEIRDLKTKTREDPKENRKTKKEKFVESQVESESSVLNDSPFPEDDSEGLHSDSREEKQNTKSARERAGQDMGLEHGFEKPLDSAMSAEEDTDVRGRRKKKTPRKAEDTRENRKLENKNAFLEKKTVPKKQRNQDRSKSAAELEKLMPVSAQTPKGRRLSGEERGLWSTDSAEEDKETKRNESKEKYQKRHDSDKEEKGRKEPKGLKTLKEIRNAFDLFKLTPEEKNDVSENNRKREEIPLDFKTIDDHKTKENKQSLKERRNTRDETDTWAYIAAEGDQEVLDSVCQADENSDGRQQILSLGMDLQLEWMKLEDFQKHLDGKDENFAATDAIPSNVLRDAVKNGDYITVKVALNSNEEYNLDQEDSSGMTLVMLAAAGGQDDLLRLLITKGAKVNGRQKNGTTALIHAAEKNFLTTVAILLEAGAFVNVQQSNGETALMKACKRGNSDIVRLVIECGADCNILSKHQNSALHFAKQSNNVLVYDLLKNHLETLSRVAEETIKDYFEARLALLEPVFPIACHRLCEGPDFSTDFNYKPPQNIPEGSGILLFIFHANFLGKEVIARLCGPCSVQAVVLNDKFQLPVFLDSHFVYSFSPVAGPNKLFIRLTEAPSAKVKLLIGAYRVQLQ
# UniProt Q8NB16: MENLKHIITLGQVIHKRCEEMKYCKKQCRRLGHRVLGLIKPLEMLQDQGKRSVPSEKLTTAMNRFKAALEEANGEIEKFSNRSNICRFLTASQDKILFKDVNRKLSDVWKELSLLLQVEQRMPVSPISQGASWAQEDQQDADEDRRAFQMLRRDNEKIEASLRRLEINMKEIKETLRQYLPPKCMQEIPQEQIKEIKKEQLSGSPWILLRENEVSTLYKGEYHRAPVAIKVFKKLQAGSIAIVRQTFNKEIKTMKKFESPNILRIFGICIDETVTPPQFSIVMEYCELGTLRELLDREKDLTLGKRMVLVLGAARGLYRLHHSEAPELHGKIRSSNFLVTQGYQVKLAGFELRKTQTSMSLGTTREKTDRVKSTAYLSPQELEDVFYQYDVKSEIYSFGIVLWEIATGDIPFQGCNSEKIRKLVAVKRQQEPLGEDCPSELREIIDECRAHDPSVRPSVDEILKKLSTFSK
# UniProt Q9H8M7: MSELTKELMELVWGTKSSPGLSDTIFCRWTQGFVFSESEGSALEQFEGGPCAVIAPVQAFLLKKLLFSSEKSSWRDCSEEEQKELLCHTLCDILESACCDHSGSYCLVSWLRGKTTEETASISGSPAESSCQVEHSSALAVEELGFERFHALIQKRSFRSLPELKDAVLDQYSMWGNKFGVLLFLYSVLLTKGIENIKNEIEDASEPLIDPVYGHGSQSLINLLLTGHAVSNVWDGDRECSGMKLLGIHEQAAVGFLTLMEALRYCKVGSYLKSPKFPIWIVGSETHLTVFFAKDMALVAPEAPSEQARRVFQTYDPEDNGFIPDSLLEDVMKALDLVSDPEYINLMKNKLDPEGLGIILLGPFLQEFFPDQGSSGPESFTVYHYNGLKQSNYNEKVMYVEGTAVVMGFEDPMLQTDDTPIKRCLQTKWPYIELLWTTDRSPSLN
# UniProt Q9Y5U8: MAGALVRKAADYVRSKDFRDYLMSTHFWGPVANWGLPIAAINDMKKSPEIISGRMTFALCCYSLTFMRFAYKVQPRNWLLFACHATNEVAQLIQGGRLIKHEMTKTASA
# UniProt P39210: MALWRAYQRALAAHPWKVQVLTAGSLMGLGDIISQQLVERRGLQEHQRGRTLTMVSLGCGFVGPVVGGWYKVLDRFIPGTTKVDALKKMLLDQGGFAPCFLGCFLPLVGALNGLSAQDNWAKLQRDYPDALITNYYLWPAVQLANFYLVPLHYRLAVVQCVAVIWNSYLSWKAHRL
# The list shows a part of the results.
# Compound: CC1=C2C(=CC=C1)N=C(N(C2=O)C3=CC=CC=C3C)CN4C=NC5=C(N=CN=C54)N
# Assay: log2 fold change, soluble protein after heating vs DMSO (PISA); higher = thermal stabilisation; K562 cells, 10 uM, 30 min; active = over 0.2 and 3.5 SD of the protein, either way, in both replicates (recomputed)
# Outline: (§1)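 K562 cells (2×10^6 cells/mL) were treated with 10 μM compound for 30 min, and aliquots were heated for 3 min over 48°C-58°C. Pooled aliquots were extracted in PBS with 0.5% NP-40 at 4°C, and the supernatant after 21,000xg for 90 min was measured by TMTpro 16plex LC-MS/MS with channel sums equalised. Reported thermal stability, relative to control samples and from duplicates, is a log2 fold change.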
row,Target,log2 fold change
1,MITF (UniProt O75030),inactive: -0.059
2,MIB1 (UniProt Q86YT6),inactive: 0.096
3,MIER2 (UniProt Q8N344),inactive: -0.093
4,MKRN2 (UniProt Q9H000),inactive: 0.143
5,MPP6 (UniProt Q9NZW5),inactive: 0.077
6,MME (UniProt P08473),inactive: -0.114
7,MPC2 (UniProt O95563),inactive: 0.057
8,MICAL1 isoform 4 (UniProt Q8TDZ2),inactive: 0.102
9,MRPL43 isoform 4 (UniProt Q8N983),inactive: -0.11
10,MRM3 (UniProt Q9HC36),inactive: -0.208
11,MICA (UniProt Q29983),inactive: 0.027
12,MIER3 isoform 2 (UniProt Q7Z3K6),inactive: -0.043
13,MINK1 (UniProt Q8N4C8),inactive: -0.01
14,MRPL16 (UniProt Q9NX20),inactive: -0.093
15,MICOS10 (UniProt Q5TGZ0),inactive: -0.079
16,MICALL1 (UniProt Q8N3F8),inactive: 0.147
17,MRNIP (UniProt Q6NTE8),inactive: 0.02
18,MRM2 (UniProt Q9UI43),inactive: 0.071
19,MPHOSPH8 isoform 2 (UniProt Q99549),inactive: -0.009
20,MLKL (UniProt Q8NB16),inactive: 0.086
21,MRPL20 (UniProt Q9BYC9),inactive: -0.064
22,MICU2 (UniProt Q8IYU8),inactive: -0.123
23,MRPL18 (UniProt Q9H0U6),inactive: -0.232
24,MID1IP1 (UniProt Q9NPA3),inactive: 0.322
25,MINDY3 (UniProt Q9H8M7),inactive: 0.031
26,MKRN3 (UniProt Q13064),inactive: 0.164
27,MRPL47 (UniProt Q9HD33),inactive: -0.131

# Compound: Cc1sc2c(c1C)C(c1ccc(Cl)cc1)=N[C@@H](CC(=O)OC(C)(C)C)c1nnc(C)n1-2
# Assay: as above
# Outline: as §1
row,Target,log2 fold change
1,MLH1 (UniProt P40692),inactive: -0.109
2,MLX (UniProt Q9UH92),inactive: 0.093
3,MIB1 (UniProt Q86YT6),inactive: 0.16
4,MPC1 (UniProt Q9Y5U8),inactive: -0.164
5,MKRN2 (UniProt Q9H000),inactive: 0.122
6,MPP6 (UniProt Q9NZW5),inactive: 0.03
7,MPV17 (UniProt P39210),inactive: -0.087
8,MINDY2 (UniProt Q8NBR6),inactive: 0.022
9,MPC2 (UniProt O95563),inactive: -0.024
10,MON1A (UniProt Q86VX9),inactive: -0.071
11,MRPL43 isoform 4 (UniProt Q8N983),inactive: 0.094
12,MRM3 (UniProt Q9HC36),inactive: 0.119
13,MICA (UniProt Q29983),inactive: -0.011
14,MINK1 (UniProt Q8N4C8),inactive: 0.037
15,MRPL16 (UniProt Q9NX20),inactive: 0.047
16,MICOS10 (UniProt Q5TGZ0),inactive: -0.238

row,Target,log2 fold change
1,MICALL1 (UniProt Q8N3F8),inactive: 0.152
2,MRNIP (UniProt Q6NTE8),inactive: -0.175
3,MOCS2 (UniProt O96033),inactive: -0.044
4,MRM2 (UniProt Q9UI43),inactive: 0
5,MPHOSPH8 isoform 2 (UniProt Q99549),inactive: 0.089
6,MLKL (UniProt Q8NB16),inactive: -0.05
7,MPZL1 isoform 3 (UniProt O95297),inactive: -0.029
8,MRPL20 (UniProt Q9BYC9),inactive: 0.087
9,MICU2 (UniProt Q8IYU8),inactive: -0.029
10,MRPL18 (UniProt Q9H0U6),inactive: 0.021
11,MID1IP1 (UniProt Q9NPA3),inactive: -0.227
12,MOB2 isoform 3 (UniProt Q70IA6),inactive: 0.067
13,MINDY3 (UniProt Q9H8M7),inactive: -0.039
14,MKRN3 (UniProt Q13064),inactive: -0.025
15,MRPL47 (UniProt Q9HD33),inactive: 0.087

# Compound: c1ccc([C@@H]2C[C@H]2NC2CCNCC2)cc1
# Assay: as above
# Outline: as §1
row,Target,log2 fold change
1,MLH1 (UniProt P40692),inactive: -0.065
2,MLX (UniProt Q9UH92),inactive: -0.011
3,MIB1 (UniProt Q86YT6),inactive: 0.087
4,MPC1 (UniProt Q9Y5U8),inactive: -0.05
5,MIER2 (UniProt Q8N344),inactive: 0.215
6,MKRN2 (UniProt Q9H000),inactive: -0.017
7,MPP6 (UniProt Q9NZW5),inactive: 0.019
8,MPV17 (UniProt P39210),inactive: 0.048
9,MINDY2 (UniProt Q8NBR6),inactive: 0.126
10,MPC2 (UniProt O95563),inactive: 0.012
11,MICAL1 isoform 4 (UniProt Q8TDZ2),inactive: 0.045
12,MRPL43 isoform 4 (UniProt Q8N983),inactive: -0.034
13,MRM3 (UniProt Q9HC36),inactive: 0
14,MMAA (UniProt Q8IVH4),inactive: -0.244
15,MINK1 (UniProt Q8N4C8),inactive: 0.005
16,MRPL16 (UniProt Q9NX20),inactive: -0.03
17,MICALL1 (UniProt Q8N3F8),inactive: 0.066
18,MOCS2 (UniProt O96033),inactive: -0.216
19,MRM2 (UniProt Q9UI43),inactive: -0.052
20,MPHOSPH8 isoform 2 (UniProt Q99549),inactive: 0.061
21,MLKL (UniProt Q8NB16),inactive: 0.047
22,MPZL1 isoform 3 (UniProt O95297),inactive: -0.095
23,MRPL20 (UniProt Q9BYC9),inactive: -0.152
24,MICU2 (UniProt Q8IYU8),inactive: 0.021
25,MRPL18 (UniProt Q9H0U6),inactive: -0.13
26,MOB2 isoform 3 (UniProt Q70IA6),inactive: -0.096
27,MINDY3 (UniProt Q9H8M7),inactive: -0.077
28,MIGA2 (UniProt Q7L4E1),inactive: -0.345
29,MRPL47 (UniProt Q9HD33),inactive: -0.01
